According to patent publication US20220395481A1, “BACTERIOSTATIC COMPOSITION, PREPARATION METHOD THEREFOR, AND USE THEREOF” (SHENZHEN EULIKAN BIOTECHNOLOGY CO., LTD, priority 2020, published 2022):
At least one read-out could not be matched to a standard name with certainty. Some results were stated once for a whole list of compounds, not compound by compound.

What was measured:
Assay in all cases: Inhibition rate after 20 minutes of action, Appendix C of GB 15979-2002
Assay type in all cases: cell-based
[1] = tested on: Candida albicans ATCC 10231; details: pH 3.8, 20 minutes of action
[2] = tested on: Escherichia coli ATCC 25922; details: Table 20; pH 3.8, 20 minutes of action
[3] = tested on: Staphylococcus aureus ATCC 6538; details: Table 20; pH 3.8, 20 minutes of action

SMILES | inhibition rates against Candida albicans ([1]; Table 20) [%] | inhibition rates against Escherichia coli [2] [%] | inhibition rates against Staphylococcus aureus [3] [%] | Inhibition rate ([1]; Table 12, single ingredient solutions) [%]
CCCCCC(=O)O [0.45% hexanoic acid, hexanoic acid] | ≥ 50 | 100.00 | 100.00 | 
CCCCCC(=O)O [0.20% hexanoic acid, hexanoic acid] |  |  |  | −0.31
